Some of these results come from one statement about several compounds together.
Experiments:
Format in all cases: cell-based
P388 leukemia cells = experiment: antiproliferative effect against P388 leukemia cells (MTT); settings: murine P388 leukemia cells
Protocol: (§1) The crude ethanolic extract and essentially pure compound were tested for toxicity against murine P388 leukemia cells and cells derived from human colon (HT-29) and lung (A549) tumors. P388 cells obtained from Dr. J. Mayo, National Cancer Institute, Bethesda Md., were maintained in Roswell Park Memorial Institute (RPMI) medium 1640 supplemented with 10% horse serum. HT-29 and A-459 human tumor cells were obtained from the American Type Culture Collection (Rockville, Md.) and maintained in RPMI medium 1640 supplemented with 10% fetal bovine serum. All cell lines were cultured in plastic tissue culture flasks and kept in an incubator at 37° C. in humidified air containing 5% CO2. Antibiotic-free stock cultures of P388 cells were subcultured to 10^5 cells/ml by dilution in fresh growth medium at 2 to 3 day intervals. The mean generation time of primary P388 cultures was 14 to 17 hr. HT-29 and A549 cells were subcultured after dissociation with trypsin-EDTA at weekly intervals.
(§2) To assess the antiproliferative effects of agents against P388, HT-29, and A549 cells, 200 μl cultures (96-well tissue culture plates, Nunc, Denmark) were established at 1×10^5 cells/ml (4000 cells/cm^2 for HT-29 and A549) in drug-free medium or medium containing the crude extract at a final dilution of 1:500 of test compound at various concentrations. Solvent for all dilutions was methanol, which was removed from plates under vacuum. All experimental cultures were initiated in medium containing Gentamicin sulfate ([…]; Schering Corporation, Kenilworth, N.J.). After 48-h exposures, P388 cells were enumerated using 3-[4,5-Dimethylthiazol-2-yl]-2,5-diphenyltetrazolium bromide (MTT) as described below (Alley, M. C., et al.[1988] Cancer Res. 48:589).
(§3) To quantitate the effects on cell proliferation, 75 μl of warm growth medium containing 5 mg/ml MTT was added to each well and cultures were returned to the incubator for 90 minutes. To spectrophotometrically quantitate MTT, plates were centrifuged (900×g, 5 minutes), culture fluids removed by aspiration, and 200 μl of acidified isopropanol (2 ml concentrated HCl/liter isopropanol) added per well. The absorbance of the resulting solutions were measured at 570 nm with a plate reader (MR700 Microplate Reader, Dynatech, Laboratories, Chantilly, Va.). […] A linear relationship between tumor cell number and formazan produced was found over the range of cell densities observed in these experiments.

HT-29 colon tumor cells = experiment: antiproliferative effect against HT-29 colon tumor cells (MTT); settings: human colon (HT-29) tumor cells
Protocol: as §1, §2, §3

A549 lung tumor cells = experiment: antiproliferative effect against A549 lung tumor cells (MTT); settings: human lung (A549) tumor cells
Protocol: as §1, §2, §3

C#CC(O)C=CCCCCCCCCCCCCCCC (stereo not drawn) [SP10098]
inhibit the proliferation: inhibition of proliferation, P388 (P388 leukemia cells) | inhibition of proliferation, HT-29 (HT-29 colon tumor cells) | inhibition of proliferation, A549 (A549 lung tumor cells)

C#CC(O)C=CCCCCCCCCCC=CCCCCCC (stereo not drawn) [SP10099]
inhibit the proliferation: inhibition of proliferation, P388 (P388 leukemia cells) | inhibition of proliferation, HT-29 (HT-29 colon tumor cells) | inhibition of proliferation, A549 (A549 lung tumor cells)

C#CC(O)C=CCCCCCCCCCCC(C)CCCC (stereo not drawn) [SP10100]
inhibit the proliferation: inhibition of proliferation, P388 (P388 leukemia cells) | inhibition of proliferation, HT-29 (HT-29 colon tumor cells) | inhibition of proliferation, A549 (A549 lung tumor cells)

C#CC(O)C=CCCCCCCCCCCCCCC(C)C (stereo not drawn) [SP10101]
inhibit the proliferation: inhibition of proliferation, P388 (P388 leukemia cells) | inhibition of proliferation, HT-29 (HT-29 colon tumor cells) | inhibition of proliferation, A549 (A549 lung tumor cells)

C#CC(O)C=CCCCCCCCCCC=CCCCCC(C)C (stereo not drawn) [SP10102]
inhibit the proliferation: inhibition of proliferation, P388 (P388 leukemia cells) | inhibition of proliferation, HT-29 (HT-29 colon tumor cells) | inhibition of proliferation, A549 (A549 lung tumor cells)

Source: US5073572A, “Bioactive metabolites from cribrochalina vasculum” (Harbor Branch Oceanographic Institution, Inc., priority 1990, dated 1991)
